Data taken from PubChem BioAssay AID248 (DTP/NCI, 2004).
The list shows only some results of the screen, not a fair sample: it is rich in T/C values a quarter to a half above the control, in often repeated tests (any T/C) and in doses without a T/C. Other doses and runs of a compound stand elsewhere. T/C is the treated group as % of the vehicle group. Some doses have a count of surviving animals in place of a T/C: the source files T/C as zero there, which appears to mark a toxic dose or a test without result, not a measured value. Some doses without a T/C left all or most animals alive at the check, yet need not have been tolerated: survival well below the control is almost never listed, so the zero probably covers shortened survival too. Counts of survivors are from the toxicity check (mostly the fifth day) where no day follows; animals may have died later. Schedules are NCI's codes, read here as Q, the interval in days (D) or hours (H), X, the number of doses. Some schedule codes hold Z or #, which are not explained here. Some doses were run more than once; their values stand side by side, smallest first. Where survival is the endpoint, the PubChem record calls one and a half times the control and up active, and a quarter to a half above the control has no call in these data; cut-offs in other NCI protocols can differ. Some T/C values are followed by the survivors on the day toxicity was checked, most often the fifth; without a count, all were alive then.

System: L1210 leukemia ip in BDF1 mice, survival T/C
Assay: NCI In Vivo Anticancer Drug Screen. Data for tumor model L1210 Leukemia (intraperitoneal) in B6D2F1 (BDF1) mice
Details: T/C endpoint: mean survival time, higher T/C = longer survival
[1] = dose: 200.0 mg/kg/injection, schedule: Q01DX009 (ip), vehicle: saline
[2] = dose: 100.0 mg/kg/injection, schedule: Q01DX009 (ip), vehicle: saline
[3] = dose: 200.0 mg/kg/injection, schedule: Q04DX003 (ip), vehicle: saline
[4] = dose: 400.0 mg/kg/injection, schedule: Q04DX003 (ip), vehicle: saline

CCCN=C(N)c1ccc(NC(=O)c2ccc(C(=O)Nc3ccc(C(N)=NCCC)cc3)cc2)cc1
T/C (dose: 0.62 mg/kg/injection, schedule: Q01DX Z (ip), vehicle: carboxymethylcellulose (CMC)): 133 % of control | T/C (dose: 3.0 mg/kg/injection, schedule: Q01DX001 (ip), vehicle: other): 126 % of control | T/C (dose: 4.4 mg/kg/injection, schedule: Q01DX001 (ip), vehicle: carboxymethylcellulose (CMC)): 132 % of control | T/C (dose: 4.4 mg/kg/injection, schedule: Q01DX001 (ip), vehicle: other): 130 % of control | T/C (dose: 5.0 mg/kg/injection, schedule: Q01DX Z (ip), vehicle: carboxymethylcellulose (CMC)): 133 % of control [5 of 6 alive] | T/C (dose: 6.6 mg/kg/injection, schedule: Q01DX001 (ip), vehicle: carboxymethylcellulose (CMC)): 139 % of control | T/C (dose: 6.6 mg/kg/injection, schedule: Q01DX001 (ip), vehicle: other): 131 % of control | survivor count (dose: 21.0 mg/kg/injection, schedule: Q01DX Z (ip), vehicle: carboxymethylcellulose (CMC)): 6 of 6 | survivor count (dose: 42.0 mg/kg/injection, schedule: Q01DX Z (ip), vehicle: carboxymethylcellulose (CMC)): 0 of 6 | survivor count (dose: 84.0 mg/kg/injection, schedule: Q01DX Z (ip), vehicle: carboxymethylcellulose (CMC)): 0 of 6 | survivor count (dose: 168.0 mg/kg/injection, schedule: Q01DX Z (ip), vehicle: carboxymethylcellulose (CMC)): 0 of 6

O=S(=O)(O)SCCN1CCCCCCC1
survivor count [1]: 3 of 6 | survivor count (dose: 400.0 mg/kg/injection, schedule: Q01DX009 (ip), vehicle: saline): 0 of 6

O=c1cccc2n1Cc1cc3ccccc3nc1-2
survivor count (dose: 150.0 mg/kg/injection, schedule: Q04DX003 (ip), vehicle: saline): 3 of 5

O=C(O)C(O)c1cccc2ccccc12 (centres undefined)
survivor count (dose: 400.0 mg/kg/injection, schedule: Q01DX009 (ip), vehicle: saline with Tween-80): 5 of 6

Cc1cc(N=Nc2c(C)ccc3ncccc23)ccc1N
survivor count (dose: 12.5 mg/kg/injection, schedule: Q01DX001 (ip), vehicle: DMSO): 3 of 6 | survivor count (dose: 25.0 mg/kg/injection, schedule: Q01DX001 (ip), vehicle: DMSO): 0 of 6 | survivor count (dose: 50.0 mg/kg/injection, schedule: Q01DX001 (ip), vehicle: DMSO): 0 of 6 | survivor count (dose: 100.0 mg/kg/injection, schedule: Q01DX001 (ip), vehicle: DMSO): 0 of 6 | survivor count (dose: 200.0 mg/kg/injection, schedule: Q01DX001 (ip), vehicle: DMSO): 0 of 6 | survivor count (dose: 400.0 mg/kg/injection, schedule: Q01DX001 (ip), vehicle: DMSO): 0 of 6

COc1ccccc1N1C(N)=NC(N)=NC1(C)C
survivor count (dose: 25.0 mg/kg/injection, schedule: Q01DX009 (ip), vehicle: saline): 6 of 6 | survivor count [2]: 2 of 6 and 3 of 6 | survivor count (dose: 100.0 mg/kg/injection, schedule: Q04DX003 (ip), vehicle: saline): 0 of 6 | survivor count [3]: 2 of 6 | survivor count [4]: 0 of 6

CC[N+](C)(CC)CCOC(=O)c1ccccc1Oc1ccc(C)cc1
survivor count [3]: 3 of 6 | survivor count [4]: 2 of 6

Cc1cc(O)c(C(C)C)cc1N(C)C (tested in a mixture with another compound)
survivor count (dose: 100.0 mg/kg/injection, schedule: Q01DX001 (ip), vehicle: saline): 0 of 6 | survivor count (dose: 200.0 mg/kg/injection, schedule: Q01DX001 (ip), vehicle: saline): 0 of 6 | survivor count (dose: 400.0 mg/kg/injection, schedule: Q01DX001 (ip), vehicle: saline): 0 of 6

CC1CCC(C(C)C)C(OC(=O)c2c([N+](=O)[O-])ccc([N+](=O)[O-])c2Br)C1 (centres undefined)
survivor count (dose: 400.0 mg/kg/injection, schedule: Q01DX009 (ip), vehicle: Klucel (hydroxypropylcellulose) (HPC)): 2 of 6

O=C1NNC(=O)C2C3CCC(C3)C12 (centres undefined)
survivor count [2]: 2 of 6 | survivor count [1]: 1 of 6

OC(COc1cccc2ccccc12)CN1CCCCC1 (centres undefined)
survivor count (dose: 100.0 mg/kg/injection, schedule: Q04DX002 (ip), vehicle: Klucel (hydroxypropylcellulose) (HPC)): 2 of 3 | survivor count (dose: 200.0 mg/kg/injection, schedule: Q04DX002 (ip), vehicle: Klucel (hydroxypropylcellulose) (HPC)): 0 of 3 | survivor count (dose: 400.0 mg/kg/injection, schedule: Q04DX002 (ip), vehicle: Klucel (hydroxypropylcellulose) (HPC)): 0 of 3

O=C(NCc1ccc(S(=O)(=O)F)cc1)Oc1ccc([N+](=O)[O-])cc1
survivor count (dose: 200.0 mg/kg/injection, schedule: Q01DX009 (ip), vehicle: other): 6 of 6 | survivor count (dose: 400.0 mg/kg/injection, schedule: Q01DX009 (ip), vehicle: other): 0 of 6
